According to PubChem BioAssay AID2685 (National Center for Advancing Translational Sciences (NCATS), 2010):
In all, about 320,000 compounds went through this assay and about 2,100 (0.66%) were called active. Inconclusive results, whose numbers are uncertain, are shown with a selection of clear calls. The call rests on the fitted dose curve; in most records, active means well fitted inhibition curve with a large enough effect in the signal ratio, with a control signal flat (not every such curve was filed as active); inconclusive means small, poorly fitted or top-dose-only effect, or effect the other way, or a change in a side signal; inactive means flat fitted curve, though single readings scatter; the % refers to the signal ratio. A potency beside an inconclusive call is a rough fit, not a confirmed value.

Test: qHTS Assay for Lipid Storage Modulators in Drosophila S3 Cells
Details: BODIPY lipid droplet fluorescence, 18-24 h, cells fed with added oleic acid; lipid storage change, negative = inhibition: at 46.1 µM (top of the series) unless noted
In short: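 Drosophila S3 cells got compounds at several concentrations plus oleic acid (400 uM solution). Laser-scanning cytometry with 488 nm excitation read lipid droplets at 500-530 nm and cells at 575-640 nm. Percent activity was relative to 20 uM Triacsin C.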
On the % scale 0 is the no-effect control and ±100 the full control effect; potency means the concentration at half of the fitted maximal effect.

Row | SMILES | Potency | lipid storage change, negative = inhibition
1 | O=C(NCCC1CCCCN1S(=O)(=O)c1cccs1)C(=O)Nc1ccc(F)cc1F (configuration not stated) | inconclusive: 18.4 µM [falling, single point] | 
2 | COc1ccc(S(=O)(=O)N2CCOCC2)cc1NC(=O)C1CCCN1C(=O)c1cccs1 (configuration not stated) | inconclusive: 6.51 µM [activator, single point] | 
3 | CC(=O)Nc1cccc(-c2cc(-c3c(Cl)cccc3Cl)no2)c1 |  | inconclusive: 0.609%
4 | CCOC(=O)c1c(C)oc2c1c(C=NCCO)c(O)c1ccccc12 |  | inconclusive: 8.1% [at 9.22 µM]
5 | O=C(NC1CCCCCCC1)c1cccc(Cl)c1 |  | inconclusive: 13.9%
6 | Fc1ccccc1N1CCN(CC2CC3C=CC2C3)CC1 (configuration not stated) |  | inconclusive: 31.2%
7 | COc1ccc(OC)c2sc(NNC(=O)COc3ccccc3)nc12 |  | inconclusive: -15.8%
8 | CCCC(=O)NCC(c1cccs1)S(=O)(=O)c1ccc(C)cc1 (configuration not stated) |  | inconclusive: 1.97%
9 | O=C1NC(=S)N/C1=C/c1cccn1-c1ccc([N+](=O)[O-])cc1 |  | inconclusive: 39.8%
10 | Cc1ccc(NC(=S)Nc2cccc(S(=O)(=O)Nc3c(C)n(C)n(-c4ccccc4)c3=O)c2)cc1 |  | inconclusive: 46.4%
11 | CN(C[C@@H](CC1CCCCC1)N(C[C@H](Cc1ccccc1)N(CCc1ccccc1)N=O)N=O)N=O |  | inconclusive: 16.8%
12 | Cc1ccc(-n2c(SCC(=O)N3CC(=O)Nc4ccccc43)nc3ccccc3c2=O)cc1 |  | inconclusive: -18.3%
13 | CN(c1ccccc1)S(=O)(=O)c1ccc(NC(=O)c2ccccc2)cc1 | inconclusive: 9.2 µM [rising, partial curve] | 
14 | Cc1cccc(COC(=O)C(Cc2ccccc2)NC(N)=O)c1 (configuration not stated) | inconclusive: 6.51 µM [activator, partial curve] | 
15 | Cc1cc(C)c(OCC(O)CNC(C)(C)C)c(C)c1 (configuration not stated) |  | inactive
16 | O=C(NC1c2ccccc2-c2ccccc21)c1ccccc1 |  | inconclusive: -7.06%
17 | O=C(Cc1cccs1)N(Cc1ccco1)C1(C(=O)NC2CCCCC2)CCCCC1 |  | inconclusive: -30.9%
18 | O=[N+]([O-])c1cccc(S(=O)(=O)NCc2ccncc2)c1 | active: 10.3 µM | 
19 | O=C(c1ccccc1)c1ccc(N2CCN(C(=O)c3cccc(F)c3F)CC2)c(F)c1 |  | inconclusive: -70.9%
20 | O=C1CC(N2CCN(S(=O)(=O)c3ccc([N+](=O)[O-])cc3)CC2)C(=O)N1c1ccccc1F (configuration not stated) |  | inconclusive: -4.46%
21 | Cc1cccc(NC(=S)N/N=C/C(C)c2ccccc2)c1C (configuration not stated) |  | inconclusive: -52.7% [at 0.00295 µM]
22 | O=C(O)CCC(=O)N1CCN(c2nc3ccccc3s2)CC1 |  | inconclusive: -11.2%

Quoted at random: 2 records from the list
Row | SMILES | Potency | lipid storage change, negative = inhibition
17 | O=C(Cc1cccs1)N(Cc1ccco1)C1(C(=O)NC2CCCCC2)CCCCC1 |  | inconclusive: -30.9%
20 | O=C1CC(N2CCN(S(=O)(=O)c3ccc([N+](=O)[O-])cc3)CC2)C(=O)N1c1ccccc1F (configuration not stated) |  | inconclusive: -4.46%
